Measurements from US7105488B1, “G protein-coupled receptor antagonists” (priority 1998, dated 2006).
At least one peptide structure holds a part that was inferred or is arguable (an end, a ring closure or a residue). Where a SMILES comes first, the peptide text is derived from it.

What was measured:
CCKAR [1] = target: T1, CCKAR (Rattus norvegicus, UniProt P30551); test: Inhibition of CCK-8-induced intracellular calcium release in CHO cells stably transfected with rat CCKAR; format: cell-based; details: for Concentration, required for inhibition of signaling: CCK-8-induced intracellular calcium release
T1 construct: expressed in transfected cells; host or cells: CHO cells
T1 sequence (P30551 1-444): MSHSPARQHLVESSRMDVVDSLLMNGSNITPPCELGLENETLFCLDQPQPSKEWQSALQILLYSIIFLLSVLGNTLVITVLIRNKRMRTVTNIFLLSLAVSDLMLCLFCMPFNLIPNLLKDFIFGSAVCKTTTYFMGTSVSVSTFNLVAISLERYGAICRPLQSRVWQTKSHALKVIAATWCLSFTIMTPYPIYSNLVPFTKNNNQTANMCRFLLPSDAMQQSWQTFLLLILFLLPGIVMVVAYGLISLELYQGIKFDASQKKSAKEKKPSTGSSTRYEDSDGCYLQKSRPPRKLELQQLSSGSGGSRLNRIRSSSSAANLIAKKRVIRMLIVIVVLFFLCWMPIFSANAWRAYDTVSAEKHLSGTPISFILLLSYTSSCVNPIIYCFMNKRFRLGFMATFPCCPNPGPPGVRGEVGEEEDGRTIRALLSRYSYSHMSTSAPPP
Method: The activity of peptides from the CCKAR transmembrane domain were tested in transfected CHO cells that stably express rat CCKAR (Tarasova et al. (1997), J. Biol. Chem. 272: 14817–14824). Sulfated cholecystokinin octapeptide was the CCKAR agonist. Determination of intracellular calcium release was performed as described in example 1 above.
None of CCKAR-derived peptides served as antagonists of chemokine receptors and none could inhibit HIV-1 infection. The activity of the antagonists in inhibiting signaling through the receptor was compared to the ability to prevent agonist binding (Table 4). Inhibition of signaling was assessed in CCK-8 evoked intracellular calcium release in FURA-2/AM treated CHO cells stably transfected with rat CCKAR (Tarasova, et al. (1997) J. Biol. Chem. 272:14817). Inhibition of ligand binding was measured with the use of a fluorescent agonist, rhodamine green CCK-8 (RG-CCK-8) and quantitative confocal laser scanning microscopy (Tarasova, et al. (1997) J. Biol. Chem. 272:14817). Peptides derived from the first, second, and sixth transmembrane domains inhibited CCK-induced signaling through the CCKAR receptor.

CCKAR [2] = target: T1, CCKAR; test: Inhibition of RG-CCK-8 binding, quantitative confocal laser scanning microscopy

| SMILES | Concentration, required for inhibition of signaling (CCKAR [1]) | Potency in inhibition of ligand signaling compared with binding (CCKAR [1]; signaling versus RG-CCK-8 binding) | Inhibition of RG-CCK-8 binding, in words (CCKAR [2]) |
| --- | --- | --- | --- |
| CC[C@H](C)[C@H](NC(=O)CNC(=O)[C@@H]1CCCN1C(=O)[C@H](CC(C)C)NC(=O)[C@H](CC(C)C)NC(=O)[C@H](Cc1ccccc1)NC(=O)[C@H](CC(C)C)NC(=O)[C@@H](NC(=O)[C@H](CC(C)C)NC(=O)[C@H](CC(C)C)NC(=O)[C@H](CC(C)C)NC(=O)[C@H](Cc1ccccc1)NC(=O)[C@@H](NC(=O)[C@H](CCC(N)=O)NC(=O)[C@H](CC(=O)O)NC(=O)[C@@H](N)CC(=O)O)[C@@H](C)O)[C@@H](C)CC)C(=O)N[C@H](C(=O)N[C@@H](CCSC)C(=O)N[C@H](C(=O)N[C@H](C(=O)N[C@@H](C)C(=O)N[C@@H](Cc1ccc(O)cc1)C(=O)NCC(=O)N[C@@H](CC(C)C)C(=O)O)C(C)C)C(C)C)C(C)C [CCKAR-TM-5-3] (H-DDQTFLLLILFLLPGIVMVVAYGL-OH) | >50 µM | – | – |
| CC[C@H](C)[C@H](NC(=O)[C@H](CCC(N)=O)NC(=O)[C@H](CC(C)C)NC(=O)[C@H](C)NC(=O)[C@H](CO)NC(=O)[C@H](CCC(N)=O)NC(=O)[C@H](Cc1c[nH]c2ccccc12)NC(=O)[C@H](CCC(=O)O)NC(=O)[C@H](CC(=O)O)NC(=O)[C@@H](N)CC(=O)O)C(=O)N[C@@H](CC(C)C)C(=O)N[C@@H](CC(C)C)C(=O)N[C@@H](Cc1ccc(O)cc1)C(=O)N[C@@H](CO)C(=O)N[C@H](C(=O)N[C@H](C(=O)N[C@@H](Cc1ccccc1)C(=O)N[C@@H](CC(C)C)C(=O)N[C@@H](CC(C)C)C(=O)N[C@@H](CO)C(=O)N[C@H](C(=O)N[C@@H](CC(C)C)C(=O)NCC(=O)N[C@@H](CC(N)=O)C(=O)N[C@H](C(=O)N[C@@H](CC(C)C)C(=O)N[C@H](C(=O)N[C@H](C(=O)N[C@H](C(=O)N[C@H](C(=O)O)C(C)C)[C@@H](C)O)[C@@H](C)CC)C(C)C)[C@@H](C)O)C(C)C)[C@@H](C)CC)[C@@H](C)CC [CCKAR-TM-1-6] (H-DDEWQSALQILLYSIIFLLSVLGNTLVITV-OH; N-terminus and C-terminus assumed) | – | comparable potencies | – |
| CC[C@H](C)[C@H](N)C(=O)N[C@H](C(=O)N[C@H](C(=O)N[C@@H](CC(C)C)C(=O)N[C@@H](Cc1ccccc1)C(=O)N[C@@H](Cc1ccccc1)C(=O)N[C@@H](CC(C)C)C(=O)N[C@@H](CS)C(=O)N[C@@H](Cc1c[nH]c2ccccc12)C(=O)N[C@@H](CCSC)C(=O)N1CCC[C@H]1C(=O)N[C@H](C(=O)N[C@@H](Cc1ccccc1)C(=O)N[C@@H](CO)C(=O)N[C@@H](C)C(=O)N[C@@H](CC(N)=O)C(=O)N[C@@H](C)C(=O)N[C@@H](Cc1c[nH]c2ccccc12)C(=O)N[C@@H](CCCNC(=N)N)C(=O)N[C@@H](C)C(=O)N[C@@H](Cc1ccc(O)cc1)C(=O)N[C@@H](CC(=O)O)C(=O)N[C@H](C(=O)N[C@H](C(=O)N[C@@H](CC(=O)O)C(=O)N[C@@H](CC(=O)O)C(=O)O)C(C)C)[C@@H](C)O)[C@@H](C)CC)C(C)C)C(C)C [CCKAR-TM-6-4] (H-IVVLFFLCWMPIFSANAWRAYDTVDD-OH) | 5 µM | – | very low activity |
